# In publication PMC8245780:
# Chains of the proteins cited; added tags and fusions are not shown. Residues count along the entry.
# UniProt Q15843, residues 1-76: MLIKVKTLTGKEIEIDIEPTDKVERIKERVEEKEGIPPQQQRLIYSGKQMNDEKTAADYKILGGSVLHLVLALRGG
# UniProt Q9UBN7: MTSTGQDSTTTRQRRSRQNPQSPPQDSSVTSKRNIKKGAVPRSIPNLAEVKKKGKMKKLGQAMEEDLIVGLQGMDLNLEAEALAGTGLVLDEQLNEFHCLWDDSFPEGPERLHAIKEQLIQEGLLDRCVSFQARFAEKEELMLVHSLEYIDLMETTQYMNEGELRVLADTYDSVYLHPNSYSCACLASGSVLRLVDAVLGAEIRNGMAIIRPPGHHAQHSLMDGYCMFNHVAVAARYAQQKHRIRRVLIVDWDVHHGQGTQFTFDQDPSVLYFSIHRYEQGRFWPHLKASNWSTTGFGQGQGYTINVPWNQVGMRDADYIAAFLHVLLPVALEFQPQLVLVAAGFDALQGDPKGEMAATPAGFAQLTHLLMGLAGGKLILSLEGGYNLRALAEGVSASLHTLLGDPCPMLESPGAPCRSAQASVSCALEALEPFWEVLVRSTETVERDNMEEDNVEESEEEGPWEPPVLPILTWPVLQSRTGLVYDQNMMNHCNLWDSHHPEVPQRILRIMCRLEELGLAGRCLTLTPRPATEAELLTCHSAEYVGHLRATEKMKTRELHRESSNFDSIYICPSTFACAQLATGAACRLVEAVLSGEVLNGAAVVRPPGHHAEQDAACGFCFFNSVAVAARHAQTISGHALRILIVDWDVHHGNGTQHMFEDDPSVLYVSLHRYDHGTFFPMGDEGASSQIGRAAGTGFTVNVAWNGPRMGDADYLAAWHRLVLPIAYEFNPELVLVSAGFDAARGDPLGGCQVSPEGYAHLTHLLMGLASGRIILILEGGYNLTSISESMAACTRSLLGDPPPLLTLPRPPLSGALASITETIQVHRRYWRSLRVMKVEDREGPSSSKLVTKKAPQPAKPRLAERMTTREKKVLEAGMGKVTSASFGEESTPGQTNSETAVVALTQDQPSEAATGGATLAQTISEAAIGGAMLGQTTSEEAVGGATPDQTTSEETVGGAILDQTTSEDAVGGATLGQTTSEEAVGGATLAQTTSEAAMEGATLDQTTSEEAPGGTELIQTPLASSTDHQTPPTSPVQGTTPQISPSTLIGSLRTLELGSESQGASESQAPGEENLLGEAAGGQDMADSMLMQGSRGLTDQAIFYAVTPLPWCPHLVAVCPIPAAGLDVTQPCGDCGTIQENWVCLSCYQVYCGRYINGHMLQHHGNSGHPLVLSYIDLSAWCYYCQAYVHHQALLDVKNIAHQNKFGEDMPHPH
# No constants are given. Whether binding was seen depends on the method and setting. Binding seen in cells or lysates may run through a third protein. Some binding calls cover weakened binding; strength is not graded here.
# Molecular target: HA-tagged NEDD8 (UniProt Q15843)
# Experiment: co-IP; HEK293 cells co-expressing FLAG-HDAC6 (full length or ΔBUZ), HA-NEDD8 and UBC12; lysed in modified RIPA buffer (0.3% NP40, 1% sodium deoxycholate, 150 mM NaCl, pH 7.5); HA-NEDD8 immunoprecipitated with anti-HA overnight at 4°C, isotype IgG as control; immunoblot with FLAG antibody
substance,measurement,value
FLAG epitope-tagged full-length HDAC6 (histone deacetylase 6) (from UniProt Q9UBN7 1-1215) (enzyme),binding,binds
